Earlier results in patent US20250250251A1, “PIPERIDINYLPYRIDINYLCARBONITRILE DERIVATIVES AS INHIBITORS OF GLUTAMINYL-PEPTIDE CYCLOTRANSFERASE AND GLUTAMINYL-PEPTIDE CYCLOTRANSFERASE LIKE PROTEIN” (Boehringer Ingelheim International GmbH, priority 2024, published 2025).
pEC50, pIC50: −log10 of the molar value. For at least one compound, name, drawing or mass did not settle the structure.

Tests used:
[1] = system: cellular (Ramos) QPCTL activity; conditions: Ramos cells, as disclosed in WO 2024/020517; read-out: Inhibitory activity of cellular (Ramos) QPCTL activity in a FACS assay; cited from earlier work
A549 = conditions: A549, as disclosed in WO 2023/205173; read-out: cellular (A549) activity, EC50; cited from earlier work

Structure (SMILES): COc1ccc(-c2ccnnc2)c(N2CCC(c3nncn3C)CC2)c1C#N [Compound 26, reference compound]
- pIC50 [1]: > 7.00

Structure (SMILES): Cn1c(N)nnc1C1CCN(c2c(C#N)cccc2-c2ccc(F)nc2)CC1 [Compound 14, reference compound]
- pEC50 (A549): > 6.00

Structure (SMILES): Cn1cnnc1C1CCN(c2c(C#N)cccc2-c2ccnnc2)CC1 [Compound 11]
- pIC50 [1]: > 7.00
